Reference: PubChem BioAssay AID504834 (National Center for Advancing Translational Sciences (NCATS), 2011)
Hit rate of the full screen: of about 320,000 compounds, about 22,000 (6.9%) were called active. The shares of active, inactive and inconclusive entries below differ from those in the screen. The call rests on the fitted dose curve; in most records, active means well fitted inhibition curve with a large enough effect; inconclusive means small, poorly fitted or top-dose-only effect, or another doubt; inactive means no such curve, though single readings can be large or run the other way. Potencies of inconclusive entries are doubtful fits and often do not repeat.

Experiment: Primary qHTS for delayed death inhibitors of the malarial parasite plastid, 96 hour incubation
Details: P. falciparum luciferase reporter growth; series mostly up to 28.7 µM
Summary of the method: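 P. falciparum expressing integrated firefly luciferase, in erythrocytes at 2% hematocrit, 0.05% parasitemia, incubated with compounds 96 h at 37 C, 5% CO2. Growth inhibition read as loss of luminescence; two-generation exposure targets delayed-death apicoplast inhibitors.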
Potency means the concentration at half of the fitted maximal effect.

Row | Structure (SMILES) | Potency
1 | COc1ccc(/C=C2/SC(=O)NC2=O)cc1 | active: 13.1 µM
2 | COc1ccc(N(CC(=O)N/N=C/c2ccco2)S(=O)(=O)c2ccccc2)cc1Cl | inconclusive: 18.5 µM [inhibitor, partial curve, poor fit]
3 | CCn1c(SCC(=O)Nc2ccc(OC)c(S(=O)(=O)N3CCCCC3)c2)nnc1C1CC1 | inconclusive: 16.5 µM [inhibitor, partial curve, poor fit]
4 | CC(CCc1ccccc1)NCc1ccc(Cl)cc1Cl (stereo unspecified) | inconclusive: 11.7 µM [inhibitor, single point]
5 | COc1ccc(-n2c(=S)[nH]c3sc4c(c3c2=O)CCc2ccccc2-4)cc1 | inactive
6 | CC(C)C(=O)NS(=O)(=O)c1ccc(N)cc1 | inconclusive: 18.5 µM [inhibitor, single point]
7 | C=C[C@H]1CN2CC[C@H]1C[C@@H]2[C@@H](O)c1ccnc2ccccc12 | active: 0.0041 µM
8 | CCCCn1c(=O)c(C(=O)Nc2ccccc2Cl)c(O)c2ccccc21 | inconclusive: 9.28 µM [inhibitor, partial curve, poor fit]
9 | CC1Oc2ccccc2N(Cc2ccc(F)cc2)C1=O (stereo unspecified) | inactive
10 | N#Cc1c(C(F)(F)F)cc(-c2ccccc2)nc1SCCN1CCOCC1 | inactive
11 | CC(=O)c1ccc(N2CCN(C(=O)Cc3n[nH]c(=O)c4ccccc34)CC2)cc1 | inconclusive: 18.5 µM [inhibitor, single point]
12 | O=C(CCCNC(=O)c1ccc(Cl)cc1)Nc1ccc(Br)cc1 | inactive
13 | COc1ccccc1NC(=O)c1ccc2nc(-c3ccccc3)c(-c3ccccc3)nc2c1 | inconclusive: 4.15 µM [inhibitor, full curve]
14 | CCN(Cc1nc2ccccc2c(=O)[nH]1)C(=O)c1ccc(C)c(NC(=O)c2ccco2)c1 | active: 13.1 µM
15 | CCOc1cc(/C=N\Nc2nc(Nc3ccccc3)nc(N3CCOCC3)n2)ccc1OC(=O)c1ccco1 | inactive
16 | NC(=O)CSc1ncnc2c1nnn2Cc1ccc(F)cc1 | inconclusive: 11.7 µM [inhibitor, single point]
17 | O=C(NC1CCCCC1)C(c1cccs1)N(C(=O)c1ccco1)c1ccc2c(c1)OCCO2 (stereo unspecified) | inactive
18 | OCCC1CN(Cc2cccc(OC3CCCC3)c2)CCN1Cc1ccsc1 (stereo unspecified) | inconclusive: 10.4 µM [inhibitor, single point]
19 | Cc1occc1C(=O)O/N=C(\N)c1ccccc1 | active: 11.7 µM
20 | Oc1ccc(/C=N/N=C(c2ccccc2)c2ccccc2)c(O)c1O | inconclusive: 18.5 µM [inhibitor, single point]
21 | CCN(CC)CCNC(=O)CCc1c(C)nc2c(c(C)nn2-c2ccc(C)cc2)c1C | inconclusive: 2.94 µM [inhibitor, full curve]
22 | CC[C@@]12C(=O)N(c3cccc(Br)c3)C(=O)N1[C@H](c1cccc(C)c1)[C@@H]1C(=O)N(Cc3ccccc3)C(=O)[C@@H]12 | active: 5.22 µM
23 | Cc1ccc(-c2cc(C(=O)Nc3nccs3)c3ccccc3n2)c(C)c1 | active: 1.31 µM

Among those listed so far, these contain two or more sulfur atoms.
Row | Structure (SMILES) | Potency
3 | CCn1c(SCC(=O)Nc2ccc(OC)c(S(=O)(=O)N3CCCCC3)c2)nnc1C1CC1 | inconclusive: 16.5 µM [inhibitor, partial curve, poor fit]
5 | COc1ccc(-n2c(=S)[nH]c3sc4c(c3c2=O)CCc2ccccc2-4)cc1 | inactive

(cont.)

Row | Structure (SMILES) | Potency
24 | O=C(NCCc1ccccc1)C1CCN(C(=O)c2ccc(F)cc2)CC1 | inconclusive: 14.7 µM [inhibitor, single point]
25 | Cc1cc(NC(=O)CCNS(=O)(=O)c2cc(Br)cnc2N)ccc1Br | inconclusive: 18.5 µM [inhibitor, single point]
26 | CCCN1C(=O)c2cc(C(=O)Nc3cccc(C(C)=O)c3)ccc2C1Nc1cccc(C(C)=O)c1 (stereo unspecified) | inconclusive: 7.38 µM [inhibitor, partial curve, poor fit]
27 | CCOC(=O)Cc1c(C)nc2c(-c3ccccc3)c(C)[nH]n2c1=O | inconclusive: 0.465 µM [inhibitor, full curve, poor fit]
28 | CC1=CC(C)(C)N(C(=O)CNC2CCCC2)c2cc(C)ccc21 | inactive
29 | O=c1cc(CSc2ccc(Cl)cc2)nc(-c2ccncc2)[nH]1 | inactive
30 | CCn1cc(C(=O)N[C@@H](CCSC)C(=O)NCCCO)c(=O)c2cc3c(cc21)OCO3 | inconclusive: 18.5 µM [inhibitor, single point]
31 | O=C(CN1CCOCC1)N1CCN(c2ccc3ccccc3n2)CC1 | inconclusive: 18.5 µM [inhibitor, single point]
32 | CC(NC(=O)c1ccc([N+](=O)[O-])cc1Cl)C1CC2CCC1C2 (stereo unspecified) | inconclusive: 18.5 µM [inhibitor, single point]
33 | COc1ccc(OC)c(-n2c(-c3cccc(S(=O)(=O)N(C)C)c3)n[nH]c2=S)c1 | inactive
34 | O=C(NCc1ccc2c(c1)OCO2)C1CCN(S(=O)(=O)N2CCOCC2)CC1 | active: 3.7 µM
35 | CCN1CCN(c2nc(N)c([N+](=O)[O-])c(Nc3ccc(C)cc3)n2)CC1 | inconclusive: 18.5 µM [inhibitor, single point]
36 | CC(C)C(=O)N1CCN(c2ccc(NC(=S)NC(=O)c3cc4ccccc4o3)cc2)CC1 | active: 5.22 µM
37 | O=C(N/N=C/c1ccc[nH]1)c1ccccc1O | inconclusive: 18.5 µM [inhibitor, single point]
38 | CC1CCCC(C)N1C(=O)COC(=O)Cc1c[nH]c2ccccc12 (stereo unspecified) | inactive
39 | Cc1ccc(C(C(=O)NC2CCCC2)N(C(=O)c2csnn2)C2CCCC2)o1 (stereo unspecified) | inactive
40 | CC(C)NC(=S)N1CCN(S(=O)(=O)c2cccc(C(F)(F)F)c2)CC1 | inconclusive: 9.28 µM [inhibitor, partial curve, poor fit]
41 | CCC(=O)c1ccc(OCC(=O)N2CCN(S(=O)(=O)c3ccc(Cl)s3)CC2)cc1 | active: 10.4 µM
42 | CCOC(=O)CSc1nc2ccccc2c(=O)n1CCCCCC(=O)NCc1ccco1 | inactive
43 | CCCN(CCC)C(=S)NC(=O)c1ccc(Cl)cc1Cl | inconclusive: 16.5 µM [inhibitor, partial curve, poor fit]
44 | O=C(CSc1n[nH]c(-c2cccnc2)n1)Nc1ccnc2ccccc12 | inconclusive: 18.5 µM [inhibitor, single point]
45 | Cc1cccc(C2c3[nH]c4ccccc4c3CCN2Cc2ccc(C)s2)n1 (stereo unspecified) | inactive
46 | CCN(C(=O)CSc1nc2ccc([N+](=O)[O-])cc2s1)C1CCS(=O)(=O)C1 (stereo unspecified) | active: 11.7 µM
